The other results are listed elsewhere or left out.
Experiments:
Experiment in all cases: log2 fold change, soluble protein after heating vs DMSO (PISA); higher = thermal stabilisation; K562 lysate, 10 uM; active = over 0.2 and 3.5 SD of the protein, either way, in both replicates (recomputed)
alvocidib = compound: CN1CC[C@H](c2c(O)cc(O)c3c(=O)cc(-c4ccccc4Cl)oc23)[C@H](O)C1 [alvocidib]
Procedure, shortened: (§1)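 Quantification was by TMTpro 16plex LC-MS/MS with equalised channel sums, applied to the supernatant after 21,000xg for 90 min. Samples were crude K562 extract at 1 mg/mL protein in PBS pH 7.4 with 1 mM MgCl2, treated with 10 μM compound for 30 min, heated for 3 min across 48°C-58°C, pooled and brought to 0.5% NP-40 at 4°C. Values are log-two fold changes in thermal stability relative to solvent controls, from duplicates.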

Protein sequences, listed by entry. Tags and fused reporters are not part of them. Lines headed by an entry give the natural chain unless they say otherwise; changes in a name come on top.
UniProt Q14789: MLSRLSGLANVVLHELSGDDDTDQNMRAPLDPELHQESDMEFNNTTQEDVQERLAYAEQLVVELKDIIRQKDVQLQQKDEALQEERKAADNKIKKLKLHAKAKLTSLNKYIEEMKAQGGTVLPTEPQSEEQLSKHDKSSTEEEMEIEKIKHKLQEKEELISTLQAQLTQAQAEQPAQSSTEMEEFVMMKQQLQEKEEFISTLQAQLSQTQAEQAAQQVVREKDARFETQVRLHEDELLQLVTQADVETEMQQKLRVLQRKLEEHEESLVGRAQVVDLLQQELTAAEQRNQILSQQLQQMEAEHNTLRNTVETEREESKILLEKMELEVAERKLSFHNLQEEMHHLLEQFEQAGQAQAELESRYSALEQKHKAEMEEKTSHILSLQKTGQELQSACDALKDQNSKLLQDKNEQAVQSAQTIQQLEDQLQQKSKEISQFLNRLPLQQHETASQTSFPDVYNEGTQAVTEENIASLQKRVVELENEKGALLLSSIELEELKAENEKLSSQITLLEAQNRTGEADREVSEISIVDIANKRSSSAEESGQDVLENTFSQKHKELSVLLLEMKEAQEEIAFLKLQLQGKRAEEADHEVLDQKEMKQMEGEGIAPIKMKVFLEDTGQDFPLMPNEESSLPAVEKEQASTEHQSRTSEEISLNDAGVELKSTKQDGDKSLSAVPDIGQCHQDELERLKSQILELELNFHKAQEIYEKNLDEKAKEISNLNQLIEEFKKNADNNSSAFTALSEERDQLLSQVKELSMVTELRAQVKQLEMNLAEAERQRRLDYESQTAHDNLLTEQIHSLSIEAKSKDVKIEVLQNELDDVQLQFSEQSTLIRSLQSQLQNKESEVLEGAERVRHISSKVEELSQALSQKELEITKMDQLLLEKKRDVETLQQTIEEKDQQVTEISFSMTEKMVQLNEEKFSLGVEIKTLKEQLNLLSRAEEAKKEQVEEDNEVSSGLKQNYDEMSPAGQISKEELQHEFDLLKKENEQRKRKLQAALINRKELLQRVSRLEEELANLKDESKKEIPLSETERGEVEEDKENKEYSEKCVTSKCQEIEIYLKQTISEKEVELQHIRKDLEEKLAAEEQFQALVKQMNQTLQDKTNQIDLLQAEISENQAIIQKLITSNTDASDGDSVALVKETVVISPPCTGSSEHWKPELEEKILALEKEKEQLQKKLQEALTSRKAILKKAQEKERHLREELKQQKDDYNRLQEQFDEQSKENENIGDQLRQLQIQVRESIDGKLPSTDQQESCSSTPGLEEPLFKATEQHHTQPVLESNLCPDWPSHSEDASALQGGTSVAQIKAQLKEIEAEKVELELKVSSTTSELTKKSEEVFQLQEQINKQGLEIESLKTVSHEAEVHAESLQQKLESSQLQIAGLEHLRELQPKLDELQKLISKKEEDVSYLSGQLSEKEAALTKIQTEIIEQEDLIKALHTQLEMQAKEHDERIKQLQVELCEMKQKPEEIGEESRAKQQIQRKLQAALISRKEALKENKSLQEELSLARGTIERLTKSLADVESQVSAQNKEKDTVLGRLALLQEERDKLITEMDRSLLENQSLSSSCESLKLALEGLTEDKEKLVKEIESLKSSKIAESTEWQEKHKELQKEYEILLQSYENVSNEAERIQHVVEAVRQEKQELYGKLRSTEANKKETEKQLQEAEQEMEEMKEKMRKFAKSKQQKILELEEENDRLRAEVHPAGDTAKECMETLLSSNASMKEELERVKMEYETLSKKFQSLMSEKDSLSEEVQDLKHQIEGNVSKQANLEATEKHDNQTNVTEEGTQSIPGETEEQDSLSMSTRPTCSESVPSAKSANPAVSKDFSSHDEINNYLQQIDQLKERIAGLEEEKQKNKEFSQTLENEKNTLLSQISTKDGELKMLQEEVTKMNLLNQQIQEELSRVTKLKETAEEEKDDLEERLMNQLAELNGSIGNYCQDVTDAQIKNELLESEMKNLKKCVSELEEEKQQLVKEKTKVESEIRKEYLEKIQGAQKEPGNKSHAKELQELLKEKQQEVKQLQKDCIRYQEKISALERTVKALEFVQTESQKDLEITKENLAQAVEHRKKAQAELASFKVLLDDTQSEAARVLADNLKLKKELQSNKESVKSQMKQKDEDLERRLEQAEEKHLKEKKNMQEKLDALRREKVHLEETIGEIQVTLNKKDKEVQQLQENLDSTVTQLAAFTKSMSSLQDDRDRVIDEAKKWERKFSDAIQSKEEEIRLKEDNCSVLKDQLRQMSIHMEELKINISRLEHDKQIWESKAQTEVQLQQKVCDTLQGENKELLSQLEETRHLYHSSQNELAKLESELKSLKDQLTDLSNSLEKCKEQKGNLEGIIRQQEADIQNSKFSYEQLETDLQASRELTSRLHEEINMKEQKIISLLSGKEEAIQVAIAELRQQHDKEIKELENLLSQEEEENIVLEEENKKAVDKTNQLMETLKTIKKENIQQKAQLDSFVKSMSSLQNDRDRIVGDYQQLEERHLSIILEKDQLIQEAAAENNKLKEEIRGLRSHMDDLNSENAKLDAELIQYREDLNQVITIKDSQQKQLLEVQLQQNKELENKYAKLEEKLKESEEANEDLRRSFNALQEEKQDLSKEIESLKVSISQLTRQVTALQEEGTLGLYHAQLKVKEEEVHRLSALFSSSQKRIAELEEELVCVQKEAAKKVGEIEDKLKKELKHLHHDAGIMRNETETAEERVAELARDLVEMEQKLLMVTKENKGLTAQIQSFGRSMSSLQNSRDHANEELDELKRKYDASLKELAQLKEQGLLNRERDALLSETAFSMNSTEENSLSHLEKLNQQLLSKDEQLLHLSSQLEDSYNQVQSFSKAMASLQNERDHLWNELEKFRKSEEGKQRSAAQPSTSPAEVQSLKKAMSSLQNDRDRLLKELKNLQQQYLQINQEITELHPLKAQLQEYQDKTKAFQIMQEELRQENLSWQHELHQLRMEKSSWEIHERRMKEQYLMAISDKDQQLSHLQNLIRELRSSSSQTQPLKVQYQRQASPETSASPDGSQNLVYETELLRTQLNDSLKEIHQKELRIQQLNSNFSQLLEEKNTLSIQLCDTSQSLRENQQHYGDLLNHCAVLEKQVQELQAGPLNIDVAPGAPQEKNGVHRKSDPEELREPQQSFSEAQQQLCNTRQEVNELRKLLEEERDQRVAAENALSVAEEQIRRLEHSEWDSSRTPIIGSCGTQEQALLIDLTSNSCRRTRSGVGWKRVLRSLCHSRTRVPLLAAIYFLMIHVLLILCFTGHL
UniProt Q9BQQ3: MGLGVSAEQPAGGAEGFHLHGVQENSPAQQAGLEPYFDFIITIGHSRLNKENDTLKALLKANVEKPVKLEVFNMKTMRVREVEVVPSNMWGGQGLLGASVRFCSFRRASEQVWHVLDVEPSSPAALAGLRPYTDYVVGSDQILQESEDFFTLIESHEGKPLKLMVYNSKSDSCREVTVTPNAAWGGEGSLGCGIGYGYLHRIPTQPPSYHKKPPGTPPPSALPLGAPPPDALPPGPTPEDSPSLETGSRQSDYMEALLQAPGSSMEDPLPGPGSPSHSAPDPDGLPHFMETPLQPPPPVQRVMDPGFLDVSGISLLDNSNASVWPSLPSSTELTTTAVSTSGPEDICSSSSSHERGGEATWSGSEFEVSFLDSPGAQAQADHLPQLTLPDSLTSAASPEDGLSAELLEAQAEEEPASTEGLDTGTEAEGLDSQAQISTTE
UniProt P06280: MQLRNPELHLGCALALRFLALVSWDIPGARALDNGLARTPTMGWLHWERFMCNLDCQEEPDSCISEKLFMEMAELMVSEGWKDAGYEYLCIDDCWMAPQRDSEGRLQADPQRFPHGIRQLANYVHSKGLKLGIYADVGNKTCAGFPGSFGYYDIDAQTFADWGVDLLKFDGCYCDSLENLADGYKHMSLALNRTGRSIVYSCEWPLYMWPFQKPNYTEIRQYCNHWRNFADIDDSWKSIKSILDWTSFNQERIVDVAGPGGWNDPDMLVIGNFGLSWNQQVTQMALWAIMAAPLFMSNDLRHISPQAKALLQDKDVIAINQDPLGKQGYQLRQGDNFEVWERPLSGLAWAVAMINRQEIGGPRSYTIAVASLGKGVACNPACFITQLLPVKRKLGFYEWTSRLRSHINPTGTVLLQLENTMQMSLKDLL
UniProt O75223: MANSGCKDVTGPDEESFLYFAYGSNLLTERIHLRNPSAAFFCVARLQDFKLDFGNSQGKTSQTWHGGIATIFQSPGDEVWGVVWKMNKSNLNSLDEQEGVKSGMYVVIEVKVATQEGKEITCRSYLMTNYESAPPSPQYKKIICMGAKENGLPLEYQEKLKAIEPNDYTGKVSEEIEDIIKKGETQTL
UniProt P38435: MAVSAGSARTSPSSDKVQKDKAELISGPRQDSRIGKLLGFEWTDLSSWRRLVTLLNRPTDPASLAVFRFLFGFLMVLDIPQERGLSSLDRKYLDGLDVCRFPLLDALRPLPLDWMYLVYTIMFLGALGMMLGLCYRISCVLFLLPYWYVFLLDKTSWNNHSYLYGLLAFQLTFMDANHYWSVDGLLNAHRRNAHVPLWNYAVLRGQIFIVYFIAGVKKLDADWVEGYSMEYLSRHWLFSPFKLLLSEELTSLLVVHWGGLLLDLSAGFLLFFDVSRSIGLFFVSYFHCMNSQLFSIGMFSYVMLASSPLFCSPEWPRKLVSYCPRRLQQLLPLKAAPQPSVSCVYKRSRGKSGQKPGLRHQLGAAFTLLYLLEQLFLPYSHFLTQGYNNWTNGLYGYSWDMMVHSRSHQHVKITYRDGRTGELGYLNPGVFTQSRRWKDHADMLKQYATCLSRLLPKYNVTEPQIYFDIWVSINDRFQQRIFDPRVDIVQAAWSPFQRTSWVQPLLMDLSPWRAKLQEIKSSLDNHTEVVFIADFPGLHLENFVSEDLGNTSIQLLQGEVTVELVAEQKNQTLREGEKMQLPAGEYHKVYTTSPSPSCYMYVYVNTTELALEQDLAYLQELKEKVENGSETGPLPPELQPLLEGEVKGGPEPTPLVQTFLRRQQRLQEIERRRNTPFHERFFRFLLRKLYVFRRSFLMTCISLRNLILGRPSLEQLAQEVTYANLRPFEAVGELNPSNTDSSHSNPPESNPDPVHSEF
UniProt Q9NQ84: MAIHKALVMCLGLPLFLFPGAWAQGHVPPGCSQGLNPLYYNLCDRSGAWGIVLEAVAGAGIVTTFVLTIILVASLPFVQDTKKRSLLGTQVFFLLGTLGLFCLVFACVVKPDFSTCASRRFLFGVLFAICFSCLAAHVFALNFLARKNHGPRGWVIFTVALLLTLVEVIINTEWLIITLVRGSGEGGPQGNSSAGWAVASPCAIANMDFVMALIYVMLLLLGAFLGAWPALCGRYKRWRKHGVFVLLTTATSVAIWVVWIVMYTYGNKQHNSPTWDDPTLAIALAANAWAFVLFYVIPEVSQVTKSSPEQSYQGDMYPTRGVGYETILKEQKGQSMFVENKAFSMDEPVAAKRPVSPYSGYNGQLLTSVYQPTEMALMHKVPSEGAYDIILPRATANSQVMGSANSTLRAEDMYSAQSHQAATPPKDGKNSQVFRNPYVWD
UniProt P49915: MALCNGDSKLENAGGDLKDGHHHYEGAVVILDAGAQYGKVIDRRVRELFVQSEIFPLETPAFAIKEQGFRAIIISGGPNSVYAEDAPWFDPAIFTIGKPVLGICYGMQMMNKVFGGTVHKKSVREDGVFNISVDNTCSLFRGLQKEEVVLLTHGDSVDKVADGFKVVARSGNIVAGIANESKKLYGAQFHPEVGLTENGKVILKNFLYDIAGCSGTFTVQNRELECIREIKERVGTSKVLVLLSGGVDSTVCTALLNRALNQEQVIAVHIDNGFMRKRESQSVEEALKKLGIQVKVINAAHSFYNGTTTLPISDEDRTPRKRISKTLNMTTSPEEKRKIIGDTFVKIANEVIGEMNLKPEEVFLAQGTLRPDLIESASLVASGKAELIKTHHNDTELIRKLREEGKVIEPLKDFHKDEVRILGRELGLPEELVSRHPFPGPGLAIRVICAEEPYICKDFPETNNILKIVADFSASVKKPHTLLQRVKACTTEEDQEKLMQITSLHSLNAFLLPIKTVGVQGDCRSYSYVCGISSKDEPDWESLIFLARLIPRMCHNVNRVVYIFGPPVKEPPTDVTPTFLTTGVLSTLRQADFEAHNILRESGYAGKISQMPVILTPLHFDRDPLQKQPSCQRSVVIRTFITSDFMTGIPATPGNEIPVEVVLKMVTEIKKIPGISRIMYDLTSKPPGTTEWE
UniProt Q92820: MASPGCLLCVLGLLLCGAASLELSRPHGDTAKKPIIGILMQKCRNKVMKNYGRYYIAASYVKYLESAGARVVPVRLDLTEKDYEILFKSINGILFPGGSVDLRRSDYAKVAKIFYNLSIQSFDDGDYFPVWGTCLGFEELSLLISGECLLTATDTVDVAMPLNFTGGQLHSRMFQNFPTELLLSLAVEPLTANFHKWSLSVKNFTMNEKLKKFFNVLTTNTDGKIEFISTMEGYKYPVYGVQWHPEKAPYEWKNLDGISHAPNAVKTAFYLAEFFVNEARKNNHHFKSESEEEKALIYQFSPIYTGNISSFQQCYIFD

Tubastatin A = compound: CN1CCc2c(c3ccccc3n2Cc2ccc(C(=O)NO)cc2)C1 [Tubastatin A]
Procedure, shortened: as §1

[1] = compound: CNC(=O)C1=CC=CC=C1NC2=NC(=NC=C2Cl)NC3=C(C=C(C=C3)N4CCOCC4)OC
Procedure, shortened: as §1

defactinib = compound: CNC(=O)c1ccc(Nc2ncc(C(F)(F)F)c(NCc3nccnc3N(C)S(C)(=O)=O)n2)cc1 [defactinib]
Procedure, shortened: as §1

[2] = compound: CNc1nc(-c2ccc3c(N)n[nH]c3c2)cc(N2C[C@@H](C(=O)NC3CCCCC3)CC[C@H]2C)n1
Procedure, shortened: as §1

encorafenib = compound: COC(=O)N[C@@H](C)CNc1nccc(-c2cn(C(C)C)nc2-c2cc(Cl)cc(NS(C)(=O)=O)c2F)n1 [encorafenib]
Procedure, shortened: as §1

[3] = compound: COC(=O)[C@H](CCSC)NC(=O)C1=C(C=C(C=C1)NC[C@H](CS)N)C2=CC=CC=C2
Procedure, shortened: as §1

alisertib = compound: COc1cc(Nc2ncc3c(n2)-c2ccc(Cl)cc2C(c2c(F)cccc2OC)=NC3)ccc1C(=O)O [alisertib]
Procedure, shortened: as §1

[4] = compound: COc1cc2nc(-c3cc(F)ccc3O)nc(N[C@@H]3CNC[C@H]3C(C)(C)O)c2cc1OC
Procedure, shortened: as §1

gefitinib = compound: COc1cc2ncnc(Nc3ccc(F)c(Cl)c3)c2cc1OCCCN1CCOCC1 [gefitinib]
Procedure, shortened: as §1

Measured: log2 fold change

GMEB1 (UniProt Q9Y692)
inactive: alvocidib -0.058 | Tubastatin A 0 | [1] -0.005 | defactinib 0.004 | [2] 0.008 | encorafenib 0.009 | [3] 0.01 | alisertib 0.009 | [4] 0 | gefitinib 0.032

GGA3 (UniProt Q9NZ52)
inactive: alvocidib 0.007 | Tubastatin A -0.027 | [1] 0.001 | defactinib 0.019 | [2] -0.143 | encorafenib 0.083 | [3] -0.01 | alisertib 0.023 | [4] 0 | gefitinib 0.038

GLMN (UniProt Q92990)
inactive: alvocidib -0.002 | Tubastatin A -0.033 | [1] -0.007 | defactinib -0.011 | [2] -0.018 | encorafenib -0.029 | [3] 0.045 | alisertib 0.009 | [4] 0.009 | gefitinib 0.007

GIGYF1 (UniProt O75420)
inactive: alvocidib -0.058 | Tubastatin A -0.089 | [1] 0.01 | defactinib -0.068 | [2] 0.068 | encorafenib 0.089 | [3] 0.009 | alisertib 0.057 | [4] -0.019 | gefitinib 0.015

GOLGB1 (UniProt Q14789)
inactive: alvocidib 0.027 | Tubastatin A 0.014 | [1] 0.029 | defactinib 0.011 | [2] -0.002 | encorafenib 0.015 | [3] 0.041 | alisertib 0.029 | [4] -0.003 | gefitinib 0

GORASP1 (UniProt Q9BQQ3)
inactive: alvocidib -0.052 | Tubastatin A -0.035 | [1] 0.018 | defactinib 0.008 | [2] -0.071 | encorafenib 0.108 | [3] -0.009 | alisertib -0.037 | [4] 0.076 | gefitinib 0.016

GPRIN1 (UniProt Q7Z2K8)
inactive: alvocidib 0.005 | Tubastatin A 0.043 | [1] 0.042 | defactinib 0.019 | [2] 0.06 | encorafenib -0.018 | [3] -0.029 | alisertib 0.034 | [4] -0.026 | gefitinib 0.039

GIGYF2 (UniProt Q6Y7W6)
inactive: alvocidib -0.028 | Tubastatin A -0.164 | [1] 0.052 | defactinib 0.017 | [2] 0.019 | encorafenib 0.092 | [3] -0.063 | alisertib 0.028 | [4] 0.013 | gefitinib 0.005

GOLGA5 (UniProt Q8TBA6)
inactive: alvocidib 0.004 | Tubastatin A -0.016 | [1] -0.02 | defactinib 0.028 | [2] -0.031 | encorafenib 0.044 | [3] 0.002 | alisertib 0.032 | [4] -0.002 | gefitinib 0.079

GLA (UniProt P06280)
inactive: alvocidib -0.008 | Tubastatin A 0.003 | [1] 0.027 | defactinib 0.019 | [2] 0.03 | encorafenib -0.048 | [3] 0.005 | alisertib -0.024 | [4] 0.022 | gefitinib -0.015

GM2A (UniProt P17900)
inactive: alvocidib 0.015 | Tubastatin A 0.092 | [1] -0.018 | defactinib 0.033 | [2] -0.021 | encorafenib -0.007 | [3] 0.093 | alisertib 0.009 | [4] -0.016 | gefitinib 0.096

GPATCH3 (UniProt Q96I76)
inactive: alvocidib 0.052 | Tubastatin A 0.013 | [1] 0.089

GOLIM4 (UniProt F8W785)
inactive: alvocidib -0.015

GGCT (UniProt O75223)
inactive: alvocidib -0.019 | Tubastatin A 0.033 | [1] 0.014 | defactinib -0.039 | [2] 0.002 | encorafenib -0.021 | [3] -0.059 | alisertib -0.013 | [4] 0.009 | gefitinib -0.053

GP1BB isoform 2 (UniProt P13224)
inactive: alvocidib 0 | Tubastatin A 0.006 | [1] -0.033 | defactinib -0.016 | [2] -0.016 | encorafenib 0.018 | [3] -0.029 | alisertib -0.019 | [4] -0.044 | gefitinib 0.012

GNAI1 (UniProt P63096)
inactive: alvocidib -0.019

3 neighbouring entries out of the list so far:
GOLIM4 (UniProt F8W785)
inactive: alvocidib -0.015

GGCT (UniProt O75223)
inactive: alvocidib -0.019 | Tubastatin A 0.033 | [1] 0.014 | defactinib -0.039 | [2] 0.002 | encorafenib -0.021 | [3] -0.059 | alisertib -0.013 | [4] 0.009 | gefitinib -0.053

GP1BB isoform 2 (UniProt P13224)
inactive: alvocidib 0 | Tubastatin A 0.006 | [1] -0.033 | defactinib -0.016 | [2] -0.016 | encorafenib 0.018 | [3] -0.029 | alisertib -0.019 | [4] -0.044 | gefitinib 0.012

(next part)

GNPAT (UniProt O15228)
inactive: alvocidib 0.034 | Tubastatin A 0.034 | [1] 0.01 | defactinib 0.01 | [2] -0.012 | encorafenib 0.059 | [3] -0.041 | alisertib 0.044 | [4] -0.09 | gefitinib -0.052

GGCX (UniProt P38435)
inactive: alvocidib 0.054 | Tubastatin A -0.097 | [1] -0.033 | defactinib 0.228 | [2] -0.014 | encorafenib 0.074 | [3] -0.012 | alisertib 0.006 | [4] 0.018 | gefitinib 0.036

GNB1L (UniProt Q9BYB4)
inactive: alvocidib -0.017 | Tubastatin A 0.026 | [1] -0.002 | defactinib 0.001 | [2] -0.035 | encorafenib 0.002 | [3] -0.011 | alisertib 0.004 | [4] -0.012 | gefitinib 0.01

GNB1 (UniProt P62873)
inactive: alvocidib -0.095 | Tubastatin A 0.029 | [1] -0.023 | defactinib -0.028 | [2] -0.011 | encorafenib 0.007 | [3] 0.003 | alisertib -0.023 | [4] -0.011 | gefitinib -0.128

GMNN (UniProt O75496)
inactive: alvocidib -0.023 | Tubastatin A 0.024 | [1] -0.019 | defactinib -0.003 | [2] -0.013 | encorafenib 0.012 | [3] -0.021 | alisertib -0.023 | [4] 0.023 | gefitinib -0.025

GPALPP1 (UniProt Q8IXQ4)
inactive: alvocidib -0.043 | Tubastatin A 0.036 | [1] -0.012 | defactinib -0.006 | [2] 0.063 | encorafenib 0.013 | [3] -0.016 | alisertib 0.007 | [4] 0.018 | gefitinib 0.07

GNL1 (UniProt P36915)
inactive: alvocidib 0.032 | Tubastatin A -0.036 | [1] 0.004 | defactinib -0.02 | [2] -0.022 | encorafenib 0.019 | [3] -0.029 | alisertib 0.011 | [4] -0.011 | gefitinib -0.03

GNAI3 (UniProt P08754)
inactive: alvocidib -0.033 | Tubastatin A -0.013 | [1] 0.03 | defactinib -0.059 | [2] -0.025 | encorafenib 0.008 | [3] -0.034 | alisertib -0.022 | [4] 0.098 | gefitinib -0.009

GLUL (UniProt P15104)
inactive: alvocidib 0.011 | Tubastatin A 0.015 | [1] 0.034 | defactinib 0.027 | [2] -0.125 | encorafenib -0.002 | [3] 0.029 | alisertib 0.002 | [4] -0.019 | gefitinib -0.004

GNA11 (UniProt P29992)
inactive: alvocidib -0.008 | Tubastatin A 0.026 | [1] -0.004 | defactinib 0 | [2] -0.065 | encorafenib 0.051 | [3] -0.023 | alisertib 0.011 | [4] 0.017 | gefitinib 0.022

GPRC5C isoform 2 (UniProt Q9NQ84)
inactive: alvocidib -0.127

GGT1 (UniProt P19440)
inactive: alvocidib -0.049 | Tubastatin A -0.021 | [1] -0.026 | defactinib 0.024 | [2] -0.017 | encorafenib 0.052 | [3] -0.02 | alisertib 0.019 | [4] -0.05 | gefitinib -0.011

GPATCH8 (UniProt Q9UKJ3)
inactive: alvocidib -0.027 | Tubastatin A -0.024 | [1] 0.016 | defactinib 0.018 | [2] 0.114 | encorafenib 0.117 | [3] 0.021 | alisertib 0.001 | [4] 0.031 | gefitinib 0.062

GMPS (UniProt P49915)
inactive: alvocidib 0.04 | Tubastatin A -0.065 | [1] -0.009 | defactinib 0.014 | [2] -0.025 | encorafenib -0.022 | [3] 0.025 | alisertib 0.005 | [4] -0.003 | gefitinib -0.026

GID4 (UniProt Q8IVV7)
inactive: alvocidib 0.045 | Tubastatin A -0.041 | [1] -0.001 | defactinib 0.017 | [2] 0.035 | encorafenib -0.058 | [3] -0.013 | alisertib -0.023 | [4] -0.029 | gefitinib -0.012

GPD1L (UniProt Q8N335)
inactive: alvocidib 0.004 | Tubastatin A -0.062 | [1] 0.031 | defactinib 0.048 | [2] -0.055 | encorafenib -0.033 | [3] 0.151 | alisertib -0.036 | [4] 0.002 | gefitinib 0.016

GGH (UniProt Q92820)
inactive: alvocidib -0.033 | Tubastatin A 0.061 | [1] 0.005 | defactinib 0.029 | [2] 0.041 | encorafenib 0.008 | [3] -0.028 | alisertib 0.013 | [4] 0.009 | gefitinib -0.035

Reference: the supplement of paper PMC10849652
